Laboratory results taken from the supplement of paper PMC11732987, “Enantioselective OTUD7B fragment discovery through chemoproteomics screening and high-throughput optimisation” (Communications Chemistry, 2025).
Some of the results follow. The data scatter; read single values as rough.

The chains behind the UniProt entries cited, without tags or fusion partners. Where a name states a change or a piece, a line headed by the entry shows the natural chain unless it says otherwise. Residues count along the entry.
UniProt Q9NV70: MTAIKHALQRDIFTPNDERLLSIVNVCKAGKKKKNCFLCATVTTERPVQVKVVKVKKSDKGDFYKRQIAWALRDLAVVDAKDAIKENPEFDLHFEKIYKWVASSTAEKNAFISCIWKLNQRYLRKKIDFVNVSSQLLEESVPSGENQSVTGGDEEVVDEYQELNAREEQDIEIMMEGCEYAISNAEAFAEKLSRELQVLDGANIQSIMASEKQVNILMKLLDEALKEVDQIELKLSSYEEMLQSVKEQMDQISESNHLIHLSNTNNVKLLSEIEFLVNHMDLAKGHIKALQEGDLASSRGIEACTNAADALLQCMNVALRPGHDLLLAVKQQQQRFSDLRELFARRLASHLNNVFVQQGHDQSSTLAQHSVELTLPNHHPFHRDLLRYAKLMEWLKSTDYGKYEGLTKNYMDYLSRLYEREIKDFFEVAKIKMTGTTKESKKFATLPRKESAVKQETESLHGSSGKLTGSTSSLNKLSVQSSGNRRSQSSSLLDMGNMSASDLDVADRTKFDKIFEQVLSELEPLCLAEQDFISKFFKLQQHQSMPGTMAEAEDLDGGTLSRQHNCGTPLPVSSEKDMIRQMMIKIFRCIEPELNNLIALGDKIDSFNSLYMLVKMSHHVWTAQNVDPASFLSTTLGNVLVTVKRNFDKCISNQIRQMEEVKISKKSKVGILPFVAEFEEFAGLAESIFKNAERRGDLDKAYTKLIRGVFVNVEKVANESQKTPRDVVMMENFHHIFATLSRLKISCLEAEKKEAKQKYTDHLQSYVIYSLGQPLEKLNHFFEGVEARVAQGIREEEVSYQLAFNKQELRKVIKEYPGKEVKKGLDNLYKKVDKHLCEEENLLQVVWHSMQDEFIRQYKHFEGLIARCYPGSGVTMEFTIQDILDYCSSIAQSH
UniProt Q9BS26: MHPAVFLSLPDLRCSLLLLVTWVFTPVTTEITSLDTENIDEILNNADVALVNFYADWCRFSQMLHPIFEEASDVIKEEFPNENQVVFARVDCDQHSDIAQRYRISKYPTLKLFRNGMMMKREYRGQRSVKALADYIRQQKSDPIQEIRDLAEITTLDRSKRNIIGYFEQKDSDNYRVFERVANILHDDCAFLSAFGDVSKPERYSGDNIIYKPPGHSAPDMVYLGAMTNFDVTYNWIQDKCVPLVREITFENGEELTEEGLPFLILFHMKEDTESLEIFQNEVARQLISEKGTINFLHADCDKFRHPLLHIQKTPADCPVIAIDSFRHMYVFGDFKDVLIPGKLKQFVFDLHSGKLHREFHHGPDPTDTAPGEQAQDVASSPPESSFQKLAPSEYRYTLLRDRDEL
UniProt Q15024, 71-96: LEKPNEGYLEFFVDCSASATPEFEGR
UniProt Q6P587: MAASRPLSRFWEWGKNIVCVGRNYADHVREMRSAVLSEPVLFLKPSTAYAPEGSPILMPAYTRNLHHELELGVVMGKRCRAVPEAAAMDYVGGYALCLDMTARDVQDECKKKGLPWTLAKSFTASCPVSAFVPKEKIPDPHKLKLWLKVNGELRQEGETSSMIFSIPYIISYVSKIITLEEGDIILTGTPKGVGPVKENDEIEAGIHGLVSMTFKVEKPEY
UniProt Q9H2F5, whole entry, looked up: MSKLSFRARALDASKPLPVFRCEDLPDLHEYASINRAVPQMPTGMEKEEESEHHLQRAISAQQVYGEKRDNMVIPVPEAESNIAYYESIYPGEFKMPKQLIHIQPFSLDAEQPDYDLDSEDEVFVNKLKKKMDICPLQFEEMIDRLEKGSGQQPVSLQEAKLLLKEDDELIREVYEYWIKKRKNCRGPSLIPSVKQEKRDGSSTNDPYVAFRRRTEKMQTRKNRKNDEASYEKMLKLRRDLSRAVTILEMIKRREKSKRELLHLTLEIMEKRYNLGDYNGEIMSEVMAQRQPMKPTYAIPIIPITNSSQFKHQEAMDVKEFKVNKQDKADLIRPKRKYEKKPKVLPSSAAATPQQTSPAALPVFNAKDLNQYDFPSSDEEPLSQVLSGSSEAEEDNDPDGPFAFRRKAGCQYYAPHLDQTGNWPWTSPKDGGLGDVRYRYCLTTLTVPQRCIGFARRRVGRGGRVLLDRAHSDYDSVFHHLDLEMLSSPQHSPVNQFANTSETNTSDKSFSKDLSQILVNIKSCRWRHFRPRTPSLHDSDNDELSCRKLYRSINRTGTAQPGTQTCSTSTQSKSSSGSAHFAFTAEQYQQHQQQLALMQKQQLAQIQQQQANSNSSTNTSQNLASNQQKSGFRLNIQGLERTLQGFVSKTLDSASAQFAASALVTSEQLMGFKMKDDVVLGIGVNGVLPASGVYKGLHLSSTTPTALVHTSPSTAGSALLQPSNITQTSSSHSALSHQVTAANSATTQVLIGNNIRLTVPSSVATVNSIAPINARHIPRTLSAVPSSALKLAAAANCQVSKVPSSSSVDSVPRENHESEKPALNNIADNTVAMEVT
UniProt Q8N0U4: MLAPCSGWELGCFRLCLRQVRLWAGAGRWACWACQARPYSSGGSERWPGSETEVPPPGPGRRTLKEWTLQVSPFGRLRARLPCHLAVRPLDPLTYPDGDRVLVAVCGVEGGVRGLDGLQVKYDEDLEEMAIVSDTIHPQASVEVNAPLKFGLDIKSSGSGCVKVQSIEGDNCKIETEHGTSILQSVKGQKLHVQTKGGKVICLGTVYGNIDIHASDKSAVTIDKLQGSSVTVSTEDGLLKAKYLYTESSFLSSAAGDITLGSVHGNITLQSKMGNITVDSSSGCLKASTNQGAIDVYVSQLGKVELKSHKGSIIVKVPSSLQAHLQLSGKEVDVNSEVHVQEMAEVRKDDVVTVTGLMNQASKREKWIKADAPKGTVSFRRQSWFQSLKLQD
UniProt Q2NKX8: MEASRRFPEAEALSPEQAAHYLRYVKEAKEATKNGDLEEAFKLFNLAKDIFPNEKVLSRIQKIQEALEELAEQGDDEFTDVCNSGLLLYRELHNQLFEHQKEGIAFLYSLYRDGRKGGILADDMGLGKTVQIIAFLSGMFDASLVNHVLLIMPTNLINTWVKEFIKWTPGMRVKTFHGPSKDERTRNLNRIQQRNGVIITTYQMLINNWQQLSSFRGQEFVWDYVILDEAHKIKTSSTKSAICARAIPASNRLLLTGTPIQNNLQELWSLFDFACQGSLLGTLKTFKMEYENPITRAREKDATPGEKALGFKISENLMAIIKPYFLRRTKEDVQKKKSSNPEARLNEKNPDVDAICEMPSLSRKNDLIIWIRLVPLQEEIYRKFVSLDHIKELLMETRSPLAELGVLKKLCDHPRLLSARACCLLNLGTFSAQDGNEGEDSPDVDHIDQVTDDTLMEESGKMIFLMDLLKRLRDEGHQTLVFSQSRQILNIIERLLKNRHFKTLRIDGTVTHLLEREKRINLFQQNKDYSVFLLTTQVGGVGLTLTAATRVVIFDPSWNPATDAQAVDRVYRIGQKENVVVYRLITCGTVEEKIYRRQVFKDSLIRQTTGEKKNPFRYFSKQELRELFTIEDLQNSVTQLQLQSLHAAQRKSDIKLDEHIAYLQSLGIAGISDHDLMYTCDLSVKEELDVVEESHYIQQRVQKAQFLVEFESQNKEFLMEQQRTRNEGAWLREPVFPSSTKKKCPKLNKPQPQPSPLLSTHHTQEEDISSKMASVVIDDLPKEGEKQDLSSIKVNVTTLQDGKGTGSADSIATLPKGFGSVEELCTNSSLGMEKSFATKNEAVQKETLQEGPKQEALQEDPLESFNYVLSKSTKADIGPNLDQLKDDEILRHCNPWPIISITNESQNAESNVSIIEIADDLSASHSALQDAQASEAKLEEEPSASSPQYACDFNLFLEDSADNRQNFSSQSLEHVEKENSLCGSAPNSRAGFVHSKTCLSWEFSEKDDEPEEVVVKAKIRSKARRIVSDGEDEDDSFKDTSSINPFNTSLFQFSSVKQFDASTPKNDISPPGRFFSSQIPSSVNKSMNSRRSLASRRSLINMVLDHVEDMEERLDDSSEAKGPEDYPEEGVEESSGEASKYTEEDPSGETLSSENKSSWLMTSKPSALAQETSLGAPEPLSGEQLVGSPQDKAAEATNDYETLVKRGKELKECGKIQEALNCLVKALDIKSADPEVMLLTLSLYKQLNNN
UniProt O00471: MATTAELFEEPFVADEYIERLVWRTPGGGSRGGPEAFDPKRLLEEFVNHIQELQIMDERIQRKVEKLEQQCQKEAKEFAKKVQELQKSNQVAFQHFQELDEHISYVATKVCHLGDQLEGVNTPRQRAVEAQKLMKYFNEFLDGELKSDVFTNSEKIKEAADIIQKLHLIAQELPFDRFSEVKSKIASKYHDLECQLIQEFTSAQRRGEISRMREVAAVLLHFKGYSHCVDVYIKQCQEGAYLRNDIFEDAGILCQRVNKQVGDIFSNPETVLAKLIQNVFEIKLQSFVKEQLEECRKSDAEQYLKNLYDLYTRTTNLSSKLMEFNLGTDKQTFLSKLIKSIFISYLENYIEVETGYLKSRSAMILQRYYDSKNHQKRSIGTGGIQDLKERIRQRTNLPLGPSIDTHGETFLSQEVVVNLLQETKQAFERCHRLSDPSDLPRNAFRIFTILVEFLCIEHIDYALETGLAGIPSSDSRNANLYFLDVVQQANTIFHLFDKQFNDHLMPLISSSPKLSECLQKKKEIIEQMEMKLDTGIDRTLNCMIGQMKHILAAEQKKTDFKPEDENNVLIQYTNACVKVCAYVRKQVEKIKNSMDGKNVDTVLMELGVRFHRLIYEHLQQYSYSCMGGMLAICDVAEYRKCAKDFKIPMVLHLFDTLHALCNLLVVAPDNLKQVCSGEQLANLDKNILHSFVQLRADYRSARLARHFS
UniProt O95677: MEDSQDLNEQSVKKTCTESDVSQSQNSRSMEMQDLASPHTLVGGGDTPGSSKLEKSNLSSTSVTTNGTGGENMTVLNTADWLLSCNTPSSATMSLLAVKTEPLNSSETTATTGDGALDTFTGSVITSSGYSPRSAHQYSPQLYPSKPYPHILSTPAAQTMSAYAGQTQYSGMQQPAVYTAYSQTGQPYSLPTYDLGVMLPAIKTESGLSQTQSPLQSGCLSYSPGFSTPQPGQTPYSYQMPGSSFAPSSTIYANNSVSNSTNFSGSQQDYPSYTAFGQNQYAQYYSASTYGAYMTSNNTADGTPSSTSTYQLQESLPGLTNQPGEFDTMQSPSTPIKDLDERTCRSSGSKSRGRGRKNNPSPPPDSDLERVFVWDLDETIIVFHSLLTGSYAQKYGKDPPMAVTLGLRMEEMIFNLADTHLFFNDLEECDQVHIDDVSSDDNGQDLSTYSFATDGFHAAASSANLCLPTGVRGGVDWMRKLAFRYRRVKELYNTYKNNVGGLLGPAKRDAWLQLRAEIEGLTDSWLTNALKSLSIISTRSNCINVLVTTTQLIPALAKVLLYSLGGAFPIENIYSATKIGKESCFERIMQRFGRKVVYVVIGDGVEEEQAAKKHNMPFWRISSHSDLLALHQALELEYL
UniProt Q96EB1: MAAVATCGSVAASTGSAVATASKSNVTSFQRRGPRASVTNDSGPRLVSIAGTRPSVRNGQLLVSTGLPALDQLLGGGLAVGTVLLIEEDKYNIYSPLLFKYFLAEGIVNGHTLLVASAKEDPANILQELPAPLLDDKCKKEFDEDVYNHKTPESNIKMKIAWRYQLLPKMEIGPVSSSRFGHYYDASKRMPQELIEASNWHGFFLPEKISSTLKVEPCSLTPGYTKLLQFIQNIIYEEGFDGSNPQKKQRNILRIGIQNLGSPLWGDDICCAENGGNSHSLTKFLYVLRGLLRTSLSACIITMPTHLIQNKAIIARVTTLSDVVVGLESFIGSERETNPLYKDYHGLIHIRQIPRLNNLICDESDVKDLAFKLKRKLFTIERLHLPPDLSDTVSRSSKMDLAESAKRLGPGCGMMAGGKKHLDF
UniProt Q14249: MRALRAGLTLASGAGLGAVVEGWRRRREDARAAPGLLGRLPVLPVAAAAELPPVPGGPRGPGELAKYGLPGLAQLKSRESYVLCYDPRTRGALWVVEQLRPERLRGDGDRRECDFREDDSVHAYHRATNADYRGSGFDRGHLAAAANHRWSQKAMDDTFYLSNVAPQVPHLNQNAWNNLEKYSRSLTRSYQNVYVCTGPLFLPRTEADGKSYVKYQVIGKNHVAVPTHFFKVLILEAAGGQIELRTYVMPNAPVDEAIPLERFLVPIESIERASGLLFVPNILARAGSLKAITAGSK
UniProt Q14674, 1355-1382: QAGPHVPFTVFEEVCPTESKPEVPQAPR
UniProt Q96HE7: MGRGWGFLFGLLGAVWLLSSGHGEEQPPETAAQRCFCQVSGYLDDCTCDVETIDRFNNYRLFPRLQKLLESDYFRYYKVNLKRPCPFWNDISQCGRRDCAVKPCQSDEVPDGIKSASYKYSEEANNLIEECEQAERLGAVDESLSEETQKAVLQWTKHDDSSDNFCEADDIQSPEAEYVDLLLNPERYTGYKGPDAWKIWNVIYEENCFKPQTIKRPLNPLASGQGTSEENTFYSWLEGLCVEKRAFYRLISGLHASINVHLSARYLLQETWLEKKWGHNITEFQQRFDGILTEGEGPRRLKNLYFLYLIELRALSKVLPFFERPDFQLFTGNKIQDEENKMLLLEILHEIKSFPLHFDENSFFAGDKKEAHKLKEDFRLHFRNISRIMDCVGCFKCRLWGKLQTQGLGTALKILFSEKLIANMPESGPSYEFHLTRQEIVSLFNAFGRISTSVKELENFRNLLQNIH

How the values were obtained:
[1] = compound: ClCC(=O)N[C@@H]1CCCc2ccccc12; assay: log2 mean competition ratio of IA-DTB cysteine labelling (DMSO/compound) (log2 ratio); higher = stronger cysteine engagement by compound; settings: treatment time: 4 h, cell line lysate: HEK293T
Protocol: (§1)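 IA-DTB competitive cysteine chemoproteomics in HEK293T RIPA lysate. Lysates were treated with compound 29 or 30 at 50 or 200 µM for 4 h, then IA-DTB (500 µM, 1 h), trypsin-digested, NeutrAvidin-enriched and analysed by diaPASEF. Competition ratio = intensity DMSO / intensity compound (n=4 treated, n=64 DMSO); binding: mean log2 CR ≥ 1 and p ≤ 0.05 plus QC filters. Target is the cysteine site.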

[2] = compound: ClCC(=O)N[C@H]1CCCc2ccccc12; assay: as above; settings: treatment time: 4 h, cell line lysate: HEK293T
Protocol: as §1

Target | log2 mean competition ratio ([1]; 50 µM) | log2 mean competition ratio ([1]; 200 µM) | log2 mean competition ratio ([2]; 50 µM) | log2 mean competition ratio ([2]; 200 µM)
FAM8A1 C38 (UniProt Q9UBU6) | -0.0854 | -0.1 |  | 
EXOC1 C650 (UniProt Q9NV70) | 0.356 | 0.0668 |  | 
ELP1 C744 (UniProt O95163) | -0.0221 | -0.311 |  | 
ERP44 C92 (UniProt Q9BS26) | -0.183 | 0.0281 |  | 
FAM118B C319 (UniProt Q9BPY3) | -0.282 | -0.175 |  | 
FAM114A2 C388 (UniProt Q9NRY5) | 0.201 | 0.0672 | 0.0101 | -0.357
ERCC5 C1021 (UniProt P28715) | -0.0157 | -0.0982 |  | 0.0942
EXOSC7 C85 (UniProt Q15024) | 0.0684 | -0.265 | 0.165 | 0.0782
ERCC4 C176 (UniProt Q92889) | 0.0059 | 0.342 |  | 
FAM117B C483 (UniProt Q6P1L5) | -0.0698 | -0.103 |  | 
EXOC1 C747 (UniProt Q9NV70) | -0.0521 | -0.0418 |  | 
EXOC2 C586 (UniProt Q96KP1) | 0.501 | 0.381 |  | 
FAM13A C442 (UniProt O94988) | -0.125 | 0.45 |  | -0.257
ERI1 C75 (UniProt Q8IV48) | 0.25 | 0.167 |  | 
FAHD1 C129 (UniProt Q6P587) | 0.152 | 0.115 | -0.0901 | 0.163
ERGIC1 C115 (UniProt Q969X5) | 0.167 | 0.672 |  | 
FAM120A C919 | 0.115 | 0.237 |  | 
EPC1 C797 (UniProt Q9H2F5) | -0.048 | -0.0729 | -0.0396 | 0.102
ERN1 C538 (UniProt O75460) | 0.299 | 0.0787 | 0.207 | -0.299
FAM185A C106 (UniProt Q8N0U4) | 0.182 | 0.147 | 0.171 | 0.13
EXOC6 C28 (UniProt Q8TAG9) | -0.331 | 0.00209 | 0.0203 | 0.0386
F2R C411 (UniProt P25116) | 0.076 | -0.192 | -0.0154 | 0.268
EPS8 C331 | -0.0588 | 0.121 | -0.226 | -0.0216
ERLEC1 C79 (UniProt Q96DZ1) | -0.148 | 0.131 | -0.388 | 0.315
ERLIN2 C262 (UniProt O94905) | -0.0261 | -0.144 | -0.0481 | -0.0383
ETFA C53 (UniProt P13804) | -0.143 | 0.033 | -0.206 | -0.0116

Target | log2 mean competition ratio ([1]; 50 µM) | log2 mean competition ratio ([1]; 200 µM) | log2 mean competition ratio ([2]; 50 µM) | log2 mean competition ratio ([2]; 200 µM)
EML3 C307 (UniProt Q32P44) | 0.0147 | -0.361 | 0.0701 | -0.203
EML4 C311 (UniProt Q9HC35) | -0.0103 | -0.345 | 0.0708 | -0.373
EXOC3 C150 (UniProt O60645) | 0.0622 | 0.169 | 0.203 | 0.812
ESCO1 C450 | -0.102 | -0.0568 | -0.0798 | 0.0171
ERF C477 (UniProt P50548) | -0.0823 | -0.0107 | -0.149 | 0.026
FANCI C419 (UniProt Q9NVI1) | -0.129 | 0.722 | 0.103 | 1.01
EPRS1 C350 | 0.201 | -0.113 | 0.275 | -0.0228
ERCC6L C356 (UniProt Q2NKX8) | -0.499 | -0.137 | -0.247 | -0.0351
FAM136A C53 (UniProt Q96C01) | -0.113 | 0.125 | 0.178 | 0.529
ELOVL5 C96 (UniProt Q9NYP7) | 0.414 | -0.0518 | 0.0993 | -0.183
EXOSC8 C89 (UniProt Q96B26) | 0.108 | -0.0195 | -0.238 | -0.0212
ELOA C339 (UniProt Q14241) | 0.533 | -0.222 | 0.324 | -0.226
EP400 C1775 (UniProt Q96L91) | 0.256 | -0.278 | 0.285 | -0.365
EXOC1 C114 (UniProt Q9NV70) | 0.00341 | -0.403 | 0.0637 | -0.328
ELOVL7 C99 (UniProt A1L3X0) | -0.126 | -0.0179 | 0.0198 | -0.057
EXOC5 C295 (UniProt O00471) | -0.0224 | -0.143 | -0.0368 | 0.0869
ETHE1 C219 (UniProt O95571) | 0.00978 | -0.308 | -0.332 | -0.15
EPB41 C224 | -0.411 | 0.13 | -0.536 | 0.027
FAM76A C108 (UniProt Q8TAV0) | -0.239 | 0.248 | -0.0223 | 0.222
EXOSC8 C22 (UniProt Q96B26) | 0.23 | 0.124 | -0.266 | 0.298
ERI1 C314 (UniProt Q8IV48) | 0.253 | -0.273 | -0.000197 | 0.213
ERCC6L C1213 (UniProt Q2NKX8) | -0.14 | -0.0458 | 0.182 | -0.0352
ETF1 C97 (UniProt P62495) | 0.107 | 0.116 | 0.168 | -0.387
FAM110B C248 | 0.155 | -0.0944 | 0.0398 | 0.0168
ELP2 C586 (UniProt Q6IA86) | 0.0235 | -0.236 | 0.0736 | -0.0475
ETAA1 C26 (UniProt Q9NY74) | -0.0876 | -0.0923 | 0.0143 | -0.147

In another format: entries from further up
Target,log2 mean competition ratio ([1]; 50 µM),log2 mean competition ratio ([1]; 200 µM),log2 mean competition ratio ([2]; 50 µM),log2 mean competition ratio ([2]; 200 µM)
FAM136A C53 (UniProt Q96C01),-0.113,0.125,0.178,0.529
ELOVL5 C96 (UniProt Q9NYP7),0.414,-0.0518,0.0993,-0.183

Later entries:

Target | log2 mean competition ratio ([1]; 50 µM) | log2 mean competition ratio ([1]; 200 µM) | log2 mean competition ratio ([2]; 50 µM) | log2 mean competition ratio ([2]; 200 µM)
EML3 C816 (UniProt Q32P44) | -0.263 | -0.0953 | -0.397 | -0.128
ELP1 C23 (UniProt O95163) | 0.201 | -0.174 | 0.254 | -0.198
EXOC1 C566 (UniProt Q9NV70) | -0.163 | 0.145 | -0.0367 | 0.000847
EYA4 C16 (UniProt O95677) | -0.277 | 0.325 | -0.245 | 0.299
EXOSC10 C411 (UniProt Q01780) | 0.0533 | -0.252 | -0.237 | -0.239
ERCC4 C143 (UniProt Q92889) | -0.0243 | -0.0536 | -0.281 | -0.0901
EPRS1 C697 | -0.317 | -0.00578 | -0.154 | 0.104
ELP4 C361 (UniProt Q96EB1) | 0.0434 | 0.209 | -0.474 | 0.048
FAM53C C276 (UniProt Q9NYF3) | 0.188 | 0.019 | 0.388 | 0.149
ETF1 C302 (UniProt P62495) | -0.0339 | -0.088 | -0.485 | -0.17
FAM193B C400 (UniProt Q96PV7) | 0.342 | 0.316 | 0.0914 | -0.324
FANCE C222 (UniProt Q9HB96) | 0.0716 | 0.194 | -0.399 | 0.263
EXOC5 C542 (UniProt O00471) | 0.0194 | 0.122 | -0.233 | 0.0261
EXOC5 C236 (UniProt O00471) | -0.0504 | 0.0279 | -0.346 | 0.0152
FANCD2 C1369 (UniProt Q9BXW9) | 0.0464 | -0.0553 | -0.051 | -0.0101
EPC1 C546 (UniProt Q9H2F5) | 0.0706 | 0.25 | -0.667 | 0.128
EPS15 C824 (UniProt P42566) | 0.206 | -0.0122 | -0.331 | -0.0982
EXOSC5 C26 (UniProt Q9NQT4) | -0.0749 | -0.00494 | -0.0746 | 0.0548
FANCM C1704 | -0.0309 | -0.0942 | -0.0971 | -0.144
ENDOG C113 (UniProt Q14249) | 0.0613 | 0.107 | -0.142 | 0.11
FAM193A C106, A0A1B0GVL4 | -0.132 | 0.468 | -0.172 | 0.0662
ERBIN C32 (UniProt Q96RT1) | -0.344 | -0.1 | 0.071 | -0.308
ERAP1 C498 (UniProt Q9NZ08) | 0.0922 | 0.315 | 0.0177 | 0.192
ERCC1 C274 (UniProt P07992) | 0.101 | -0.263 | 0.119 | -0.143
ERCC6 C1464 | 0.389 | 0.175 | 0.0502 | 0.178
ELP2 C746 (UniProt Q6IA86) | 0.0781 | -0.294 | 0.108 | -0.199

Target | log2 mean competition ratio ([1]; 50 µM) | log2 mean competition ratio ([1]; 200 µM) | log2 mean competition ratio ([2]; 50 µM) | log2 mean competition ratio ([2]; 200 µM)
ESPL1 C1829 (UniProt Q14674) | -0.0278 | -0.106 | -0.212 | -0.261
ERCC2 C155 (UniProt P18074) | -0.0352 | 0.136 | -0.0804 | 0.0163
ESCO1 C483 | -0.107 | -0.024 | -0.4 | -0.373
FAF2 C194 (UniProt Q96CS3) | -0.109 | 0.06 | -0.139 | 0.0344
EPS15L1 C470 | -0.0305 | -0.1 | -0.14 | 0.108
FAM177A1 C114 (UniProt Q8N128) | 0.00184 | -0.277 | -0.252 | -0.137
EP400 C1368 (UniProt Q96L91) | 0.0584 | -0.0502 | -0.0454 | -0.267
ESPL1 C1369 (UniProt Q14674) | -0.374 | 0.15 | -0.316 | 0.253
FANCI C875 (UniProt Q9NVI1) | -0.0131 | 0.00955 | -0.121 | 0.00585
EXOC7 C550 (UniProt Q9UPT5) | 0.211 | 0.0722 | 0.411 | 0.0774
ERCC2 C663 (UniProt P18074) | 0.103 | -0.3 | 0.397 | -0.239
FAM83D C148 (UniProt Q9H4H8) | 0.0789 | -0.102 | -0.204 | 0.148
ERO1A C131 (UniProt Q96HE7) | -0.418 | 0.341 | -0.444 | 0.19
ERN1 C951 (UniProt O75460) | -0.0773 | 0.0514 | 0.131 | 0.0846
ESD C28 (UniProt P10768) | -0.349 | -0.149 | -0.311 | -0.301
ESYT1 C370 (UniProt Q9BSJ8) | 0.146 | 0.0526 | 0.229 | 0.0902
ESCO1 C580 | 0.353 | 0.136 | -0.0143 | 0.252
ELOC C11 (UniProt Q15369) | 0.0375 | -0.242 | 0.0464 | -0.142
EMILIN3 C700 | -0.0409 | 0.491 | 0.147 | 0.222
ERGIC3 C199 (UniProt Q9Y282) | 0.355 | 0.0561 | 0.371 | 0.34
ERCC6L C982 (UniProt Q2NKX8) | 0.0398 | -0.192 | 0.145 | -0.048
ESPL1 C57 (UniProt Q14674) | 0.148 | -0.0483 | 0.101 | 0.0418
F2R C296 (UniProt P25116) | -0.0516 | -0.121 | -0.233 | -0.199

Complete entries, quoted from the list. Order of values: log2 mean competition ratio ([1]; 50 µM) | log2 mean competition ratio ([1]; 200 µM) | log2 mean competition ratio ([2]; 50 µM) | log2 mean competition ratio ([2]; 200 µM)
ERCC2 C663 (UniProt P18074) as listed: 0.103 | -0.3 | 0.397 | -0.239
FAM110B C248 as listed: 0.155 | -0.0944 | 0.0398 | 0.0168
EXOC6 C28 (UniProt Q8TAG9) as listed: -0.331 | 0.00209 | 0.0203 | 0.0386
ETAA1 C26 (UniProt Q9NY74) as listed: -0.0876 | -0.0923 | 0.0143 | -0.147
